Test results as given in publication PMC6697746.

Chains of the proteins cited; added tags and fusions are not shown. Lines headed by an entry give the natural chain unless they say otherwise; changes in a name come on top.
UniProt O14980: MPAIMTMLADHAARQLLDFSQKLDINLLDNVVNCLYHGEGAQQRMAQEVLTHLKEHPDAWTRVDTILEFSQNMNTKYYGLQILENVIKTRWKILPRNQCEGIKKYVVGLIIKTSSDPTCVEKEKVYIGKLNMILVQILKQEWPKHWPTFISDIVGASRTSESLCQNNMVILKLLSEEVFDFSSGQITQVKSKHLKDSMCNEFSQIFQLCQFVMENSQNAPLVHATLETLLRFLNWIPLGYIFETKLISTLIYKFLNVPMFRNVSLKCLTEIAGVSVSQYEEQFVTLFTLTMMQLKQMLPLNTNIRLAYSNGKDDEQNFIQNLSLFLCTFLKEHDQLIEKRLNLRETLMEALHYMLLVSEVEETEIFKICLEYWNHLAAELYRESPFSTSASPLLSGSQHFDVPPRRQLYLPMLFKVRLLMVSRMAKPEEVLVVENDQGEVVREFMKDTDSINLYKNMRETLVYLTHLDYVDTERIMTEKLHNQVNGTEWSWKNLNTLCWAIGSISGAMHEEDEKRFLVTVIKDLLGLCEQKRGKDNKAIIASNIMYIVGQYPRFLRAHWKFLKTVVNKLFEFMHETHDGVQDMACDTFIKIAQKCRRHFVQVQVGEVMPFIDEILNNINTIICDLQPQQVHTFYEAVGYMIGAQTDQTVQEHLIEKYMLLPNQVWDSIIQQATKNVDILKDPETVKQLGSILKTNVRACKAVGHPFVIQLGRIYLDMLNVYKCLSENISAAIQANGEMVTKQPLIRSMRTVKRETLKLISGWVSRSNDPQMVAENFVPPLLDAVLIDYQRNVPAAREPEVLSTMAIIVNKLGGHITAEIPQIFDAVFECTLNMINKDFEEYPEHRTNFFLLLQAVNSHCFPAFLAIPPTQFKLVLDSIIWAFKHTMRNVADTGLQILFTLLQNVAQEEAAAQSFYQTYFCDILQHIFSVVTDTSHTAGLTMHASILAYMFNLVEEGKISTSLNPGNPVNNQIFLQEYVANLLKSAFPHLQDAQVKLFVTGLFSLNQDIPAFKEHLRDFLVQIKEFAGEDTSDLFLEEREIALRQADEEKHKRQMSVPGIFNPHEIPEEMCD
UniProt Q9UM11: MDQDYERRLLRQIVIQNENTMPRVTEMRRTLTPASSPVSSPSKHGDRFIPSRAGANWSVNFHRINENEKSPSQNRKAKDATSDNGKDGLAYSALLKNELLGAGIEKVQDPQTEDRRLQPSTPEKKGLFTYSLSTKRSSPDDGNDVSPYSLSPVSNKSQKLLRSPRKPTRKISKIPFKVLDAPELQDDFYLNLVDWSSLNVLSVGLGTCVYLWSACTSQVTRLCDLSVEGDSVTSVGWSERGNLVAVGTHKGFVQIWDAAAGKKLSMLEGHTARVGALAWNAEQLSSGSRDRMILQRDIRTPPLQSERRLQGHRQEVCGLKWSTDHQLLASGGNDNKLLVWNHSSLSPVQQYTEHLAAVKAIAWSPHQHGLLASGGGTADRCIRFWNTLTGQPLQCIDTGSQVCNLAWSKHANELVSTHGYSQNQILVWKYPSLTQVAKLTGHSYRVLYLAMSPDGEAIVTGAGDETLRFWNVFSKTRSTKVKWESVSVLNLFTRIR

Target: Flag-CRM1 (human) (UniProt O14980)
Assay: co-IP; 293T cells co-transfected with Flag- and HA-tagged constructs; lysis in EBC buffer (50 mM Tris pH 7.5, 120 mM NaCl, 0.5% NP-40); agarose-conjugated antibody 3-4 h at 4 °C; four washes with NETN buffer; immunoblot

Substance: HA-Cdh1 with the NES sequence deleted (from UniProt Q9UM11)
- binding: binds

No constants are given. Whether binding was seen depends on the method and setting. Binding seen in cells or lysates may run through a third protein. Binding calls can cover weak binding; strength is not graded here.
